Primary screen of a compound library

Amino acid sequences for entries named in this document (tags omitted). Residues count along the entry.
UniProt A4I591, 1-473: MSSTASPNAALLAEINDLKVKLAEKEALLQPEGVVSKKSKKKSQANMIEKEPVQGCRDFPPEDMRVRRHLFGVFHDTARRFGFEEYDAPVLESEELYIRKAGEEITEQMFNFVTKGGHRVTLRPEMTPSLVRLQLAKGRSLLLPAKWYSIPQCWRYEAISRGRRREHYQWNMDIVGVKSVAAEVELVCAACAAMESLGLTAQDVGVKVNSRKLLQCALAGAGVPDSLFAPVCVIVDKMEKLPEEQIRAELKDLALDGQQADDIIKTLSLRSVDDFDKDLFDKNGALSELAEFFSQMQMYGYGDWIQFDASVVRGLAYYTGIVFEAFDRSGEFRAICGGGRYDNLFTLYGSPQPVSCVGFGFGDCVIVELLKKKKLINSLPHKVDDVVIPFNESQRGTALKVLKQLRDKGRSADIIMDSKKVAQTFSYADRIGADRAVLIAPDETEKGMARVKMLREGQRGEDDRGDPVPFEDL
UniProt P9WNZ1, whole entry: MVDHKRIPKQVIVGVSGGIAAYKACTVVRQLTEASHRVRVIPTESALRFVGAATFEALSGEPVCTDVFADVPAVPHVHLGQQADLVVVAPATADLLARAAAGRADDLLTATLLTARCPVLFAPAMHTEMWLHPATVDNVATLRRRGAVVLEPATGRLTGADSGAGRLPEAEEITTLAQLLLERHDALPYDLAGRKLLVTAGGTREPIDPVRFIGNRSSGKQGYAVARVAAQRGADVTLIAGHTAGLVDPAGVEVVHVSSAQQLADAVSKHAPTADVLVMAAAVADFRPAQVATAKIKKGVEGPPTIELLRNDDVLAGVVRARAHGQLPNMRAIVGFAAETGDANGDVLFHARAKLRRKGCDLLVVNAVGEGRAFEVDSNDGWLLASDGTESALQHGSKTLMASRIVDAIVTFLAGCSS
UniProt P9WFT3, whole entry: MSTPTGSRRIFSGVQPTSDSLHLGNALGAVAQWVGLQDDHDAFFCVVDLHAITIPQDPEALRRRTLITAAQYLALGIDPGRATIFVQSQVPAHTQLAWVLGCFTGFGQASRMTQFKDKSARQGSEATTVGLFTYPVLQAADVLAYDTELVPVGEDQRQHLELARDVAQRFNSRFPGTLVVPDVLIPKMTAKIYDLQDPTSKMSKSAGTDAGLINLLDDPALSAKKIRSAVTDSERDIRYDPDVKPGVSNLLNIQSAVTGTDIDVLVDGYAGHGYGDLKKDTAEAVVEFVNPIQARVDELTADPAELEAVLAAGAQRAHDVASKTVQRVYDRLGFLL

Source: ChEMBL document CHEMBL3988442, “University of Dundee, Small-Polar-MMV Screening Library” (2021).

Results are given as percent effect. The controls that fix the scale are not given in the record; negative values are as filed. This is an unselected part of the compounds tested. Two or more numbers in one place are separate tests of the same structure; such repeats can differ widely. A dash means the value is not listed here; it may have been measured.

LiHisRS: 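Enzyme assay of histidyl-tRNA synthetase; the read-out is not stated. Target: Histidine-tRNA ligase, Leishmania infantum (UniProt A4I591). Compounds at 30 µM. Direction is inferred from retests: higher values go with stronger inhibition. The assay is labelled LdHisRS but filed under L. infantum. About 69,000 compounds were tested under these conditions; 0.6% (about 410) showed 50% or more at least once.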
CoaBC: 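Enzyme assay of CoaBC with a phosphate dye (Biomol Green) read at 650 nm. Target: Coenzyme A biosynthesis protein CoaBC, Mycobacterium tuberculosis (UniProt P9WNZ1). Tested at 30 µM. Direction is inferred from only a few compounds that gave an IC50; most scored high, so higher reads as stronger inhibition. Most strong results did not repeat in a second test. Size under these conditions: about 67,000 compounds, about 40 of them at 50% or above in at least one test.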
MtTrpRS: 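Tryptophan-tRNA ligase, Mycobacterium tuberculosis (UniProt P9WFT3). Enzyme assay of tryptophanyl-tRNA synthetase; the read-out is not stated. Tested at 10 µM. Higher most likely means stronger inhibition; the record gives no direction and few retests gave an IC50. About 65,000 compounds were tested under these conditions; 0.098% (about 64) showed 50% or more at least once.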

SMILES | LiHisRS | CoaBC | MtTrpRS
CC(=O)N1CCn2c(-c3ccccc3)cnc2C12CCNCC2 | 10 | 5.943 | 1.281
CN(C)CC(=O)N1CCO[C@@H]2CC(COCc3ccncc3)C[C@H]21 (some centres unmarked) | 13.86 | 2.599 | -
O=C1CC(c2ccccc2)c2snc(C(=O)O)c2N1 (centres unmarked) | 5.825 | -11.17 | 11.06
COc1ncccc1NC(=O)N(CC(C)C)C1CC1 | 15.38 | -0.9558 | -4.641
CN(C)[C@@H]1CCN(C(=O)c2ccsc2)[C@H]1Cc1cnn(C)c1 | 5.109 | 3.368 | -2.115
Cc1ccc(NCCCNC(=O)NCc2c(C)cc(C)[nH]c2=O)nc1 | 19.78 | 3.78 | 2.384
CN(C)CC1(O)CCN(C(=O)c2ccc(-n3cnnc3)cc2Cl)C1 (centres unmarked) | -52.11 | - | -3.128
CC(NCc1cnc(C2CCC2)s1)c1ccccc1-n1cccn1 (centres unmarked) | 5.882 | -5.703 | -2.279
CN(CC1CCOCC1)C1CCCN(c2ccccn2)C1 (centres unmarked) | 14.49 | 4.205 | -4.838
COc1cc(C)ccc1C(=O)N1C[C@@H](CN(C)CCO)[C@@H](CO)C1 | 11.29 | 3.03 | -0.2694
CCn1ccnc1CN1CCN(CCc2ccccn2)CC1C (centres unmarked) | 8.235 | 2.792 | 1.356
Cc1c(S(=O)(=O)NC2CC2)cc2c(C)cc(=O)n3c2c1CCC3 | 8.621 | -6.928 | 1.295
Cc1noc(C(C)N2CCN(Cc3nc(C)c(C)o3)CC2)n1 (centres unmarked) | -7.339 | 2.302 | 0.312
CCCS(=O)(=O)N(C)C(=O)CCc1ccccc1 | 12.9 | 3.178 | 0.7048
CC(=O)N1CC[C@@]2(C(=O)Nc3ccccc3)CCN(S(C)(=O)=O)CC[C@@H]12 | 20.51 | 6.015 | -2.213
Cc1nn(C)c2cnn(Cc3ccc(C(=O)NC4CC4)o3)c12 | 18.58 | 2.57 | -4.008
c1ccc(Cc2noc(CN(Cc3cccs3)CC3CCCO3)n2)cc1 (centres unmarked) | 18.26 | 1.908 | -8.179
CS(=O)(=O)c1cccc2c1CCCN2C(=O)Cc1cccc(F)c1 | 16 | 6.198 | 1.644
Cn1nnc2c1C(COCc1ccccn1)CN(C(=O)c1ccsc1)C2 (centres unmarked) | 21.62 | 13.95 | 1.754
c1cncc(CN2CCc3ncnc(NCCc4c[nH]cn4)c3CC2)c1 | 4.425 | 5.732 | 1.591
Cc1ncsc1CCN(C)C(=O)CN1CCOC1=O | 20.51 | -2.616 | 1.583
Cc1cc(CNC(=O)N2CCN(C(C)c3cccnc3)CC2)c(C)o1 (centres unmarked) | 8.219 | 15 | -3.866
Cc1ccccc1CN(C)C(=O)CN1CCCC(Cn2cncn2)C1 (centres unmarked) | 9.615 | 1.434 | -6.671
O=C(Cc1cn2ccsc2n1)N1CCCC(n2ccnc2)C1 (centres unmarked) | 13.89 | -1.579 | -4.545
O=C(NCCc1cccnc1)c1nc2c(s1)CCCN2C(=O)C1CC1 | 11.71 | -2.723 | -
O=C(NCCNC(=O)C1CC1)c1sccc1Br | 17.11 | 1.29 | 0.457
Cc1nc(-c2cncnc2C2CCCNC2)no1 (centres unmarked) | 4.225 | -5.179 | 14.38
CC(C)OCCOCc1cccc(NC(=O)NCc2ccncc2)c1 | 12.26 | 1.818 | 2.734
Cc1nn(C)c(C)c1C1COCCN1C(=O)c1n[nH]c2ccccc12 (centres unmarked) | 19.18 | 0 | -3.277
O=C(NC1CC1)N(CCc1ccccc1)C1CCOC1 (centres unmarked) | 7.563 | 0.4878 | -3.666
COCc1nc2cc(NCc3ccncc3)ccc2o1 | 100 | 61.9 and 1.058 | 0.9381
Cc1nc(-c2ccccc2)cc2nn(CC(N)=O)c(=O)n12 | 10.87 | 0.2421 | -2.34
CCc1nc(CN2CCCC(NCCn3cncn3)C2)no1 (centres unmarked) | 18.75 | 11.93 | -2.249
Cn1ncc(NC(=O)Cn2cc(-c3ccc(F)cn3)cn2)n1 | 4.444 | -0.7353 | 0.1235
Cc1nc(CC(=O)N2CCN(c3ccc(N(C)C)cc3)CC2)cs1 | 30.19 | 12.84 | 4.782
Cc1ccc(C(=O)N2Cc3ccccc3OC3(CCOCC3)C2)cn1 | -1.053 | -0.9732 | 8.638
COc1ccc(-n2ccc(C(=O)NCCN3CCCC(C)C3)n2)cc1 (centres unmarked) | 3.478 | 3.742 | 6.621
Oc1ccccc1-c1n[nH]c(C2CCCO2)n1 (centres unmarked) | 13.58 | -0.2551 | -2.673
Cc1cnn(CCNCc2ccc(OCC(N)=O)cc2)c1 | 18.45 | 2.679 | -1.066
Cn1cnnc1C1CCCN(C(=O)c2cc(Cl)c(Cl)n2C)C1 (centres unmarked) | 6.195 | 3.655 | -7.774
O=C(CN1CC(n2cccn2)C1)NCCCc1ccccc1 | -6.154 | 8.769 | -4.373
Cc1cc(CN(Cc2cccs2)CC2CCCO2)on1 (centres unmarked) | 14.78 | -1.654 | 4.345
Cc1cnn(CC2CCCCN2CC(=O)Nc2nc(C)cs2)c1 (centres unmarked) | 16.52 | 4.962 | -2.045
Cc1cccc(NC(=O)c2ccc(OCc3nnnn3C)cc2)n1 | -35.71 | -4.854 | -14.4